In US20170137489 (published 2017):

Assay: general procedure: Fmoc solid-phase peptide synthesis; Fmoc-Sieber Amide resin; HCTU/DIEA; TBTU/HOBt/DIEA
Details: whole synthesis, scale 1.41 kg resin, salt exchange using ammonium acetate and acetic acid buffers

Substance: H-Inp-D-Bal-D-Trp-Phe-Apc-NH2
- crude HPLC purity (HPLC): 90.0%
- crude yield: 80.8%
